This passage reports binding results from publication doi:10.1101/2021.03.09.434627.

T1: His6-HSCA2^G87D-Myc (Arabidopsis) (UniProt Q9LDZ0)
T1 sequence: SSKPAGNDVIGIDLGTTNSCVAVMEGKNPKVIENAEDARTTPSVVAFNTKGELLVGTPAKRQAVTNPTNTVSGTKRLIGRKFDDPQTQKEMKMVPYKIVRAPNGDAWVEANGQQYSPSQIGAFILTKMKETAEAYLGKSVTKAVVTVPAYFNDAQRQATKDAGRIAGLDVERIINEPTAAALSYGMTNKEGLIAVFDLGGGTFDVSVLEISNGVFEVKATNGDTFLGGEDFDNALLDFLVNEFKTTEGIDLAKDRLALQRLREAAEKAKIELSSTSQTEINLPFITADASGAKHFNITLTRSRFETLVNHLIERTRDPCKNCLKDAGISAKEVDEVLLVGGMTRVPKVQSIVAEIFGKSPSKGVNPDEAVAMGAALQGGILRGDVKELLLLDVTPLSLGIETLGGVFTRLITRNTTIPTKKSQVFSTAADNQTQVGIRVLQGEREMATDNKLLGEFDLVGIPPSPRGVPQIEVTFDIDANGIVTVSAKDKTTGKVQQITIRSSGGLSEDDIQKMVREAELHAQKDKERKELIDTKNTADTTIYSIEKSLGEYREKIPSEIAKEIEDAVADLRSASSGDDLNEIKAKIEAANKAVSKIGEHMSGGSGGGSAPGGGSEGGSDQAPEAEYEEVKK

T2: His6-HSCA2-Myc (Arabidopsis) (UniProt Q9LDZ0)
T2 sequence: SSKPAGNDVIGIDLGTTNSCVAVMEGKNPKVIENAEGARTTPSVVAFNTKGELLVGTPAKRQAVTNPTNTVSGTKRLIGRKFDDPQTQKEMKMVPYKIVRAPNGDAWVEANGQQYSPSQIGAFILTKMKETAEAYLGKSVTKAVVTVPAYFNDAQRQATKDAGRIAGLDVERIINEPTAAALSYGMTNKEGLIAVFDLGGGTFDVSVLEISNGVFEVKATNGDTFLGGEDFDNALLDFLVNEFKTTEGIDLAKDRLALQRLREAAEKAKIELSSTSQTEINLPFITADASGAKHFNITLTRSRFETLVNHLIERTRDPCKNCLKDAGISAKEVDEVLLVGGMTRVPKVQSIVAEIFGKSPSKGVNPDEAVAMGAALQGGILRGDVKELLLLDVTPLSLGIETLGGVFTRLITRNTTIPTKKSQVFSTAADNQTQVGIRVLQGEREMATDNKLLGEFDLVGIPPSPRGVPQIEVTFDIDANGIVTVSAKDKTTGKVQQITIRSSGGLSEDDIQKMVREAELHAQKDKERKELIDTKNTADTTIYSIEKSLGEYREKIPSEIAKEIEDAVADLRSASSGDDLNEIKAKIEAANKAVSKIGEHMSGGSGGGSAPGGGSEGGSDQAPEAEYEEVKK

B1: ISU1-Myc (protein, UniProt O49627 51-167)
chain: PNVGTGLVGAPACGDVMKLQIKVDEKTGQIVDARFKTFGCGSAIASSSVATEWVKGKAMEDVLTIKNTEIAKHLSLPPVKLHCSMLAEDAIKAAVKDYKEKRVKTNGAAAAGETTQA
B2: ISU1^T55M-Myc (protein, UniProt O49627 51-167)
chain: PNVGMGLVGAPACGDVMKLQIKVDEKTGQIVDARFKTFGCGSAIASSSVATEWVKGKAMEDVLTIKNTEIAKHLSLPPVKLHCSMLAEDAIKAAVKDYKEKRVKTNGAAAAGETTQA
B3: ISU1^T55MP128S (protein, UniProt O49627 51-167)
chain: PNVGMGLVGAPACGDVMKLQIKVDEKTGQIVDARFKTFGCGSAIASSSVATEWVKGKAMEDVLTIKNTEIAKHLSLPSVKLHCSMLAEDAIKAAVKDYKEKRVKTNGAAAAGETTQA
B4: ISU1^T55MP127A (protein, UniProt O49627 51-167)
chain: PNVGMGLVGAPACGDVMKLQIKVDEKTGQIVDARFKTFGCGSAIASSSVATEWVKGKAMEDVLTIKNTEIAKHLSLAPVKLHCSMLAEDAIKAAVKDYKEKRVKTNGAAAAGETTQA
B5: ISU1^T55MAAA (protein, UniProt O49627 51-167)
chain: PNVGMGLVGAPACGDVMKLQIKVDEKTGQIVDARFKTFGCGSAIASSSVATEWVKGKAMEDVLTIKNTEIAKHLSLPAAALHCSMLAEDAIKAAVKDYKEKRVKTNGAAAAGETTQA
B6: ISU1^T55ML126A (protein, UniProt O49627 51-167)
chain: PNVGMGLVGAPACGDVMKLQIKVDEKTGQIVDARFKTFGCGSAIASSSVATEWVKGKAMEDVLTIKNTEIAKHLSAPPVKLHCSMLAEDAIKAAVKDYKEKRVKTNGAAAAGETTQA

Results are given in words; binding and its absence hold for the method and conditions named. In cells and extracts the contact can be indirect. Some entries that bind do so weakly or less than the wild type. Where a sequence is shown, tags or fusion partners need not be part of it.

One experiment deals with T1, His6-HSCA2^G87D-Myc (Arabidopsis). As to the kind of experiment: pull-down.
Regarding B1, the binding entry is recorded as “binds”.

In the next experiment the target is T2, His6-HSCA2-Myc (Arabidopsis). As to the kind of experiment: pull-down.
On to B1, for which the binding entry is listed as “binds”.
The same measure, in the same setting: the same measure for B2: “binds”; for B3: “binds”; for B4: “binds”.
Still for that read-out and setting: to B5 belongs “binds weakly”; to B6, “binds”.
